Publication PMC10645070
Where two headings read alike, the source gives them in different places. Results are given in words; binding and its absence hold for the method and conditions named. Binding seen in cells or lysates may run through a third protein. Here binding means that the protein was enriched with, or labelled near, the bait; the list need not be complete.

Amino acid sequences for entries named in this document (tags omitted).
UniProt P08050: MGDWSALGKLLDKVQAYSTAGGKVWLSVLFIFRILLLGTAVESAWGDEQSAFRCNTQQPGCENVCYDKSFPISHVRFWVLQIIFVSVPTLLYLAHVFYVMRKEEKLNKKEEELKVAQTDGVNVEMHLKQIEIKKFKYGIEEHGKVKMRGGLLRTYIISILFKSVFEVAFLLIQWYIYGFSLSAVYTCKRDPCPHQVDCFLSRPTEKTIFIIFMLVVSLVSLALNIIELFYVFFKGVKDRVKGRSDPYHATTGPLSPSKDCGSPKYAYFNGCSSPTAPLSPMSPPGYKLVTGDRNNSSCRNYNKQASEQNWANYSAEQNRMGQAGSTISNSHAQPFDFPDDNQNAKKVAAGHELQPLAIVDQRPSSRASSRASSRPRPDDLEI
UniProt P67809: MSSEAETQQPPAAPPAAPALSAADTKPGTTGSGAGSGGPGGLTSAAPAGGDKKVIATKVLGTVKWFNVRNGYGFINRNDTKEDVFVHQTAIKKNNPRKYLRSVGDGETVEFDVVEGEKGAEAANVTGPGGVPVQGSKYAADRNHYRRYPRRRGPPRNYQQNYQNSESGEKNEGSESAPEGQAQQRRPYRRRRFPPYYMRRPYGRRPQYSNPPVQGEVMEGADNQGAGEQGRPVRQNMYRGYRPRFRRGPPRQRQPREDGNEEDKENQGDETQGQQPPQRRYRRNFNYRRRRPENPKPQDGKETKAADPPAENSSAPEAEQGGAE

B1: Ca2+-regulated heat stable protein 1 (CARHSP1) (protein, UniProt Q9Y2V2 1-147)
chain: MSSEPPPPPQPPTHQASVGLLDTPRSRERSPSPLRGNVVPSPLPTRRTRTFSATVRASQGPVYKGVCKCFCRSKGHGFITPADGGPDIFLHISDVEGEYVPVEGDEVTYKMCSIPPKNEKLQAVEVVITHLAPGTKHETWSGHVISS
B2: myelin expression factor 2 (MYEF2) (protein, UniProt Q9P2K5 1-600)
chain: MADANKAEVPGATGGDSPHLQPAEPPGEPRREPHPAEAEKQQPQHSSSSNGVKMENDESAKEEKSDLKEKSTGSKKANRFHPYSKDKNSGAGEKKGPNRNRVFISNIPYDMKWQAIKDLMREKVGEVTYVELFKDAEGKSRGCGVVEFKDEEFVKKALETMNKYDLSGRPLNIKEDPDGENARRALQRTGGSFPGGHVPDMGSGLMNLPPSILNNPNIPPEVISNLQAGRLGSTIFVANLDFKVGWKKLKEVFSIAGTVKRADIKEDKDGKSRGMGTVTFEQAIEAVQAISMFNGQFLFDRPMHVKMDDKSVPHEEYRSHDGKTPQLPRGLGGIGMGLGPGGQPISASQLNIGGVMGNLGPGGMGMDGPGFGGMNRIGGGIGFGGLEAMNSMGGFGGVGRMGELYRGAMTSSMERDFGRGDIGINQGFGDSFGRLGSAMIGGFAGRIGSSNMGPVGSGISGGMGSMNSVTGGMGMGLDRMSSSFDRMGPGIGAILERSIDMDRGFLSGPMGSGMRERIGSKGNQIFVRNLPFDLTWQKLKEKFSQCGHVMFAEIKMENGKSKGCGTVRFDSPESAEKACRIMNGIKISGREIDVRLDRNA
B3: SNW domain-containing protein 1 (SNW1) (protein, UniProt Q13573 1-536)
chain: MALTSFLPAPTQLSQDQLEAEEKARSQRSRQTSLVSSRREPPPYGYRKGWIPRLLEDFGDGGAFPEIHVAQYPLDMGRKKKMSNALAIQVDSEGKIKYDAIARQGQSKDKVIYSKYTDLVPKEVMNADDPDLQRPDEEAIKEITEKTRVALEKSVSQKVAAAMPVRAADKLAPAQYIRYTPSQQGVAFNSGAKQRVIRMVEMQKDPMEPPRFKINKKIPRGPPSPPAPVMHSPSRKMTVKEQQEWKIPPCISNWKNAKGYTIPLDKRLAADGRGLQTVHINENFAKLAEALYIADRKAREAVEMRAQVERKMAQKEKEKHEEKLREMAQKARERRAGIKTHVEKEDGEARERDEIRHDRRKERQHDRNLSRAAPDKRSKLQRNENRDISEVIALGVPNPRTSNEVQYDQRLFNQSKGMDSGFAGGEDEIYNVYDQAWRGGKDMAQSIYRPSKNLDKDMYGDDLEARIKTNRFVPDKEFSGSDRRQRGREGPVQFEEDPFGLDKFLEEAKQHGGSKRPSDSSRPKEHEHEGKKRRKE

How the values were obtained:
[1] = molecular target: Connexin43 (Cx43) of rat origin, stably expressed in HEK293 cells (HEK293^Cx43+) (rat) (UniProt P08050); assay: affinity purification with mass spectrometry; IP of Cx43 from 3 mg purified nuclear lysate, on-bead trypsin digestion, LC-MS/MS, compared with negative control samples (t-test, FDR = 0.01, S0 = 1)
[2] = molecular target: Connexin43 (Cx43) of rat origin, stably expressed in HEK293 cells (HEK293^Cx43+) (rat) (UniProt P08050); assay: as above; remark: listed apart in the source

Molecule	binding [1]	binding [2]
Y-box-binding protein 1 (YBX1), endogenous (from UniProt P67809 1-324)	binds	–
B1	–	binds
B2	–	binds
B3	–	binds
